From the supplement of paper PMC10849652
The other results are listed elsewhere or left out.

Chains of the proteins cited; added tags and fusions are not shown. Lines headed by an entry give the natural chain unless they say otherwise; changes in a name come on top.
UniProt Q96AB3: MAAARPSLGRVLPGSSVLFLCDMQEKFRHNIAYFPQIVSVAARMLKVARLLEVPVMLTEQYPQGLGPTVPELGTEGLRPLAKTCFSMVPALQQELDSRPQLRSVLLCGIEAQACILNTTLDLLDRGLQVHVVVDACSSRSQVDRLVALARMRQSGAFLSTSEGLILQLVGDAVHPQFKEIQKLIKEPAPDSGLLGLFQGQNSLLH
UniProt Q6P9B9, whole entry, looked up: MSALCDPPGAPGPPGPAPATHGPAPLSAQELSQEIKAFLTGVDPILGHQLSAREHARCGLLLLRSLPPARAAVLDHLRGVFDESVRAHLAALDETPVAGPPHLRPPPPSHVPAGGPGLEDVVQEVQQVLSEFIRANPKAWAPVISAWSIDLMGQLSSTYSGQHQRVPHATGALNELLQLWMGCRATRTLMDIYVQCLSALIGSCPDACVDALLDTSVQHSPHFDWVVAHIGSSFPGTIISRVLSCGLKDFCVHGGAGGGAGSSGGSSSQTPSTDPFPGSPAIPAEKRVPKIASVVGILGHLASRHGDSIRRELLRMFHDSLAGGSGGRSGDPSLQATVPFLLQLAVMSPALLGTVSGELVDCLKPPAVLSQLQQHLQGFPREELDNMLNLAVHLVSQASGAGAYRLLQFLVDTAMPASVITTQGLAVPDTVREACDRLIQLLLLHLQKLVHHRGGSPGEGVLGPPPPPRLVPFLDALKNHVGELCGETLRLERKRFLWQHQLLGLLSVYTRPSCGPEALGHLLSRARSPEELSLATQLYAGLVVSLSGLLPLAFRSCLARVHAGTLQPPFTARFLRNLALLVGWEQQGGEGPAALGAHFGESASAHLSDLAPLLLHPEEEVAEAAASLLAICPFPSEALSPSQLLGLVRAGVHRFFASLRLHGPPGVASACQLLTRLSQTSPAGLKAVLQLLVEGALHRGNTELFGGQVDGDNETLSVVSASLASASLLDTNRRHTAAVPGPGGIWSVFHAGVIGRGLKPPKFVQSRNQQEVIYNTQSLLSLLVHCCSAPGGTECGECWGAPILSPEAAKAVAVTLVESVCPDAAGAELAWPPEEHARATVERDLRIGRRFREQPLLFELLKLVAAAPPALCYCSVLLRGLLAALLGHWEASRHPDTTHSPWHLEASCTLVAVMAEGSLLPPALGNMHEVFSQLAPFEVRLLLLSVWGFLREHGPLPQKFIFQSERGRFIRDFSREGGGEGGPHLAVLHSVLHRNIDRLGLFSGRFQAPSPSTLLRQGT
UniProt Q9NV88, whole entry, looked up: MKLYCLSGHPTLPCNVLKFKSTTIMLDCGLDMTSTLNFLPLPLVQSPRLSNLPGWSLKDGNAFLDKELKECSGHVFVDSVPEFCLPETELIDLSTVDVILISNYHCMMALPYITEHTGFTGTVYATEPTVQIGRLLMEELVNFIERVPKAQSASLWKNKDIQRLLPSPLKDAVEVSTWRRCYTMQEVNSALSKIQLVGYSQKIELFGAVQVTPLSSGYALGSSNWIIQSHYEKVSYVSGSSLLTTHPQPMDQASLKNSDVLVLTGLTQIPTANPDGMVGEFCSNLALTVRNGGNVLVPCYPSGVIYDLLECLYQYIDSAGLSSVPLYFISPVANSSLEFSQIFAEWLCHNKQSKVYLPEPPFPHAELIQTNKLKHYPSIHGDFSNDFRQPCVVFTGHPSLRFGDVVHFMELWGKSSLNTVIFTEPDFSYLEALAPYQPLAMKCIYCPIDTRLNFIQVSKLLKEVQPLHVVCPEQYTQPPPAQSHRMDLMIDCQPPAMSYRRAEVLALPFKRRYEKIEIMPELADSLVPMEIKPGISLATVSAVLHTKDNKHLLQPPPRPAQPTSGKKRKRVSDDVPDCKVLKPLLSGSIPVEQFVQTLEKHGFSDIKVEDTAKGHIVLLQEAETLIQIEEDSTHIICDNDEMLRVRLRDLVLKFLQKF
UniProt Q9H3F6: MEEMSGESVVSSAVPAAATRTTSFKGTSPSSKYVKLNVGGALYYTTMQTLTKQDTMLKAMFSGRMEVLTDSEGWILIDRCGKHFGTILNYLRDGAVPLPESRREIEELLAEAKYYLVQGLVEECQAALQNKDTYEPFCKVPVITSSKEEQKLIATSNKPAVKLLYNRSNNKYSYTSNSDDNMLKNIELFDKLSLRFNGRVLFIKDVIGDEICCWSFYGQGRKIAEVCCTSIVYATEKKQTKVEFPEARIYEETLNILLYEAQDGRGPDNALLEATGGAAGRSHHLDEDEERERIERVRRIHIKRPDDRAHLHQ
UniProt Q6DN90: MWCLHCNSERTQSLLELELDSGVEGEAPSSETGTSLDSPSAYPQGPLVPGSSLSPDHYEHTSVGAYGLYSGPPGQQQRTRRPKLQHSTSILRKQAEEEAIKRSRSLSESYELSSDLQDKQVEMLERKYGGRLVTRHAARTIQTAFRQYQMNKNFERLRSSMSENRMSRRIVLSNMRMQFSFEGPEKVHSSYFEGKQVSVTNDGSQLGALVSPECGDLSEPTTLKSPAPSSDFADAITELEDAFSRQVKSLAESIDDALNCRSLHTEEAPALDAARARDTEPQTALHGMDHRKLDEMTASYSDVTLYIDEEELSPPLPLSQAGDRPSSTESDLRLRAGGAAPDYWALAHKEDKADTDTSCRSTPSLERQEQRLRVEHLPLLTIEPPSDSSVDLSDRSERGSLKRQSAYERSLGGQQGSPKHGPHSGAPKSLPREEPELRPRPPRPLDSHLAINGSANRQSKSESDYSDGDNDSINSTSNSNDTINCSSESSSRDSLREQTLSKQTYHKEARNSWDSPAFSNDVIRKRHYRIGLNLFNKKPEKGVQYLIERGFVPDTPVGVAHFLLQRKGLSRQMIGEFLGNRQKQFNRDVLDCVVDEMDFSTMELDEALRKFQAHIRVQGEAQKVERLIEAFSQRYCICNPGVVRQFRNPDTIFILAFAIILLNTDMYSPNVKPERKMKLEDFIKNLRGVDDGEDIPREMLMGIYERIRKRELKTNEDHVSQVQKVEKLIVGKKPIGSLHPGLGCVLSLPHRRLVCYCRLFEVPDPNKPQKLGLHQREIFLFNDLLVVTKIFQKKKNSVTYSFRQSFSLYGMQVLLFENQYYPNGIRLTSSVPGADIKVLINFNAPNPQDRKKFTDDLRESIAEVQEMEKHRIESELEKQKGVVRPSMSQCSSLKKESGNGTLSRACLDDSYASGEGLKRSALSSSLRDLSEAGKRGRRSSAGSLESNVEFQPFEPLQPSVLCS
UniProt P51617, whole entry, looked up: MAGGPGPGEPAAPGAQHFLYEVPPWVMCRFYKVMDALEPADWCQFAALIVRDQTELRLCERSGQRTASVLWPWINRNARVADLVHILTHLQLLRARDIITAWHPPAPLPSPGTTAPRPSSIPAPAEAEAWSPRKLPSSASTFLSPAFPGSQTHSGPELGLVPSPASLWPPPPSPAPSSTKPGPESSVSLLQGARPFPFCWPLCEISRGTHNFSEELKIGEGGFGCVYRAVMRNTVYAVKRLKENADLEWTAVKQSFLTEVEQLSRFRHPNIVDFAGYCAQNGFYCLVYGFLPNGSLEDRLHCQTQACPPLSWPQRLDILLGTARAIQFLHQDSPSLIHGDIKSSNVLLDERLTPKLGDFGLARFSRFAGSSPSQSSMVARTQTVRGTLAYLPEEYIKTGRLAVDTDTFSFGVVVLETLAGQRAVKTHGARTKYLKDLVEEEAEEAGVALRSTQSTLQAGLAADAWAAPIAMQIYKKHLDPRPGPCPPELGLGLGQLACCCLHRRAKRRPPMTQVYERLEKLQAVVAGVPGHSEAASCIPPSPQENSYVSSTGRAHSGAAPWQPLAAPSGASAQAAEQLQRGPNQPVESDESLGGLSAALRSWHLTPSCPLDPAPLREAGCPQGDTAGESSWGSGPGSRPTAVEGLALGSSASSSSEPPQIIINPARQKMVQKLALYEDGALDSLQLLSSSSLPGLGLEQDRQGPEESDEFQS
UniProt P06756, whole entry, looked up: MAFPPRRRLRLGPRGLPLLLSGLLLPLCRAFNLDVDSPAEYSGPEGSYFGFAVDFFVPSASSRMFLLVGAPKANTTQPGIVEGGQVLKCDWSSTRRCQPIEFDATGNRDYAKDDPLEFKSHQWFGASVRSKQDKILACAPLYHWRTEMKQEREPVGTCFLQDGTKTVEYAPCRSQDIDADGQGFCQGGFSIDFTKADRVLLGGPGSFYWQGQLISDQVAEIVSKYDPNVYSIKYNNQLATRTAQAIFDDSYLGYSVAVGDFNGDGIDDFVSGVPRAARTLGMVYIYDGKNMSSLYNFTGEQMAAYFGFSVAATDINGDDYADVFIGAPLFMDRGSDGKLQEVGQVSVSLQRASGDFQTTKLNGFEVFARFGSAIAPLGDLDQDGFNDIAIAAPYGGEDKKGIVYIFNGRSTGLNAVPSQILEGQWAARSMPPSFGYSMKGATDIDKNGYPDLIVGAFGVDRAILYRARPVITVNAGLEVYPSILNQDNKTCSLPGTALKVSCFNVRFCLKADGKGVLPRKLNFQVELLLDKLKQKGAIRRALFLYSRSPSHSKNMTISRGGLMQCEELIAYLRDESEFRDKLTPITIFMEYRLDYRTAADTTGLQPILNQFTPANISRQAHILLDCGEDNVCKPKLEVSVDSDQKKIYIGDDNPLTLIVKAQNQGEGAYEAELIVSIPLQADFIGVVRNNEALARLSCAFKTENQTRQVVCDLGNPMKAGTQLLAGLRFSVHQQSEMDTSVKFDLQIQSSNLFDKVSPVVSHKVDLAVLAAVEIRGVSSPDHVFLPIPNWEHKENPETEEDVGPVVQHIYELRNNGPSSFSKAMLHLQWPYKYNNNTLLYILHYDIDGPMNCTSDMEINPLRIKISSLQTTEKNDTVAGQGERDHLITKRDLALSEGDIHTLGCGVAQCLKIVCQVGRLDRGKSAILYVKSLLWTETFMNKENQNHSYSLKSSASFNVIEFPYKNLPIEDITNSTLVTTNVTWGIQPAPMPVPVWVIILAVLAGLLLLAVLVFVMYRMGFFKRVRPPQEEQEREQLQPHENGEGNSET
UniProt Q9H7Z6: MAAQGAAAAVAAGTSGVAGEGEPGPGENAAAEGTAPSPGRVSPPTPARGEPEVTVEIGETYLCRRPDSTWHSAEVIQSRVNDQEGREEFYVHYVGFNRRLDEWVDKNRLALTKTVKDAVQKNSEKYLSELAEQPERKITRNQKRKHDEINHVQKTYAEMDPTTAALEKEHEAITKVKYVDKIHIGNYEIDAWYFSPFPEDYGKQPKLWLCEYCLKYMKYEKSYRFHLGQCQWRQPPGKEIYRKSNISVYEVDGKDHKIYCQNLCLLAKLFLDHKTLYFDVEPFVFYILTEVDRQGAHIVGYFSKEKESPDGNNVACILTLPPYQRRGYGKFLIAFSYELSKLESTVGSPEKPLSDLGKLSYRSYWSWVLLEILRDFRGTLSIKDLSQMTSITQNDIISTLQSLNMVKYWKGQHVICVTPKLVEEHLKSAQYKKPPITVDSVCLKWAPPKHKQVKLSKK
UniProt Q9BUE6: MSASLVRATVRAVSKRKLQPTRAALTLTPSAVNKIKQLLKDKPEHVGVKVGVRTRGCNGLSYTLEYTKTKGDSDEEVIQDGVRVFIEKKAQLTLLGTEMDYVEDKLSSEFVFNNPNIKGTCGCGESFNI
UniProt Q9H910: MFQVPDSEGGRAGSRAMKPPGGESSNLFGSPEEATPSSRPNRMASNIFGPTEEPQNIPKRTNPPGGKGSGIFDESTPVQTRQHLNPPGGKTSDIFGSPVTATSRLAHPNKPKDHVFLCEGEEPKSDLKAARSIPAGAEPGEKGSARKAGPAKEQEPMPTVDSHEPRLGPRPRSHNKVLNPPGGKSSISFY
UniProt Q8TB96: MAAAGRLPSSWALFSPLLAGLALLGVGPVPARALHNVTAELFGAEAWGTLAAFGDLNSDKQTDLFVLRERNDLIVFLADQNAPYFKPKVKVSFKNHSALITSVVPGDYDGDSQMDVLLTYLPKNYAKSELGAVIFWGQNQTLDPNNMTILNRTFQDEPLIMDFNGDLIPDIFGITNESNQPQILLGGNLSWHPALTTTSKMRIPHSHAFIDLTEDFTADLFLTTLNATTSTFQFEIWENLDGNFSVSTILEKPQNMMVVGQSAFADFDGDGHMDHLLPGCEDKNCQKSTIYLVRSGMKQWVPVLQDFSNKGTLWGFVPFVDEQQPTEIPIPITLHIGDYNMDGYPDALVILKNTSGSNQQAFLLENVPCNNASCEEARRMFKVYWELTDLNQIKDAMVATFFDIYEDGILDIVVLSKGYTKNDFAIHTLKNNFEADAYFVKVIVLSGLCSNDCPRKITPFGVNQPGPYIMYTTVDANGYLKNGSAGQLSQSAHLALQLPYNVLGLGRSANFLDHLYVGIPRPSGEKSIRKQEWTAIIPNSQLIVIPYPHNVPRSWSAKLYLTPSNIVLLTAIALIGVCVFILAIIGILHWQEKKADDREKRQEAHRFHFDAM
UniProt Q9ULR0: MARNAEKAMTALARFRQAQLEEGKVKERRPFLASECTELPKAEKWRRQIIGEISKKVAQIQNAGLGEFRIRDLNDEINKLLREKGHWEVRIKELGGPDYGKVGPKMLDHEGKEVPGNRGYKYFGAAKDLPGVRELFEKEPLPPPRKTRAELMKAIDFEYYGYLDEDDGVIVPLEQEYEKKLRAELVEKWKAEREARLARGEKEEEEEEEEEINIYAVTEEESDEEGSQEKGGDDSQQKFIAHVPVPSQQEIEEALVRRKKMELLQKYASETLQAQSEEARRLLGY

Compound: CN1CCC(CNc2ccc3ncc(-c4cccc(OC(F)(F)F)c4)n3n2)CC1
Assay: log2 fold change, soluble protein after heating vs DMSO (PISA); higher = thermal stabilisation; K562 lysate, 10 uM; active = over 0.2 and 3.5 SD of the protein, either way, in both replicates (recomputed)
Procedure, shortened: (§1)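 Log-two fold change in thermal stability relative to solvent controls is reported from duplicates. For each sample, crude K562 extract from dounce-homogenised pellets in PBS pH 7.4 with 1 mM MgCl2, at 1 mg/mL protein, was treated with 10 μM compound for 30 min. Aliquots heated for 3 min across 48°C-58°C were pooled, brought to 0.5% NP-40 at 4°C and cleared at 21,000xg for 90 min. The supernatant was quantified by TMTpro 16plex LC-MS/MS with channel sums equalised.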

Target | log2 fold change
ISOC2 (UniProt Q96AB3) | inactive: -0.08
INTS5 (UniProt Q6P9B9) | inactive: -0.072
ITPKA (UniProt P23677) | inactive: 0.054
IPO11 isoform 2 (UniProt Q9UI26) | inactive: -0.009
JAGN1 (UniProt Q8N5M9) | inactive: 0.042
KDM1B (UniProt Q8NB78) | inactive: -0.042
KDELR2 (UniProt P33947) | inactive: -0.089
INTS9 (UniProt Q9NV88) | inactive: 0.072
KCTD10 (UniProt Q9H3F6) | inactive: -0.055
ISYNA1 (UniProt Q9NPH2) | inactive: 0.11
ISCU (UniProt Q9H1K1) | inactive: -0.023
IQGAP1 (UniProt P46940) | inactive: -0.017
INTS14 (UniProt Q96SY0) | inactive: 0.008
KDM1A (UniProt O60341) | inactive: -0.016
KBTBD2 (UniProt Q8IY47) | inactive: 0.06
IQSEC1 (UniProt Q6DN90) | inactive: -0.031
IRAK1 (UniProt P51617) | inactive: 0.043
ITGAV (UniProt P06756) | inactive: 0.036
KCTD9 (UniProt Q7L273) | inactive: -0.007
IRF2BPL (UniProt Q9H1B7) | inactive: 0.111

Target | log2 fold change
IRF2BP1 (UniProt Q8IU81) | inactive: -0.06
ISOC1 (UniProt Q96CN7) | inactive: 0.042
KAT7 (UniProt O95251) | inactive: 0.073
JPT1 (UniProt Q9UK76) | inactive: 0.014
KCTD5 (UniProt Q9NXV2) | inactive: 0.033
INTS7 (UniProt Q9NVH2) | inactive: 0.039
IRF3 (UniProt Q14653) | inactive: 0.014
ITPK1 (UniProt Q13572) | inactive: -0.037
KAT8 (UniProt Q9H7Z6) | inactive: 0.045
IPO5 isoform 3 (UniProt O00410) | inactive: 0.008
ISCA1 isoform 2 (UniProt Q9BUE6) | inactive: -0.21
JPT2 isoform 3 (UniProt Q9H910) | inactive: 0.011
KCTD20 (UniProt Q7Z5Y7) | inactive: -0.037
ITFG1 (UniProt Q8TB96) | inactive: 0.11
KANSL3 (UniProt Q9P2N6) | inactive: 0.01
KCT2 (UniProt Q8NC54) | inactive: 0.153
JUND (UniProt P17535) | inactive: 0.172
ISY1 isoform 1 (UniProt Q9ULR0) | inactive: 0.02
ITGB1 (UniProt P05556) | inactive: 0.009

Compound: CN1CCN(CCOc2cc(OC3CCOCC3)c3c(Nc4c(Cl)ccc5c4OCO5)ncnc3c2)CC1 [saracatinib]
Assay: as above
Procedure, shortened: as §1

Target | log2 fold change
ISOC2 (UniProt Q96AB3) | inactive: -0.047
INTS5 (UniProt Q6P9B9) | inactive: 0.069
ITPKA (UniProt P23677) | inactive: 0.013
IPO11 isoform 2 (UniProt Q9UI26) | inactive: -0.013
JAGN1 (UniProt Q8N5M9) | inactive: 0.077
KDM1B (UniProt Q8NB78) | inactive: 0.025
KDELR2 (UniProt P33947) | inactive: 0.029
INTS9 (UniProt Q9NV88) | inactive: -0.007
KCTD10 (UniProt Q9H3F6) | inactive: 0.012
ISYNA1 (UniProt Q9NPH2) | inactive: 0.011
ISCU (UniProt Q9H1K1) | inactive: -0.012
IQGAP1 (UniProt P46940) | inactive: 0.015
INTS14 (UniProt Q96SY0) | inactive: -0.019
KDM1A (UniProt O60341) | inactive: -0.001
KBTBD2 (UniProt Q8IY47) | inactive: 0.031
IQSEC1 (UniProt Q6DN90) | inactive: 0
IRAK1 (UniProt P51617) | inactive: -0.016
ITGAV (UniProt P06756) | inactive: 0.005
KCTD9 (UniProt Q7L273) | inactive: 0.034
IRF2BPL (UniProt Q9H1B7) | inactive: 0.025

Target | log2 fold change
IRF2BP1 (UniProt Q8IU81) | inactive: 0
ISOC1 (UniProt Q96CN7) | inactive: 0.01
KAT7 (UniProt O95251) | inactive: 0.095
JPT1 (UniProt Q9UK76) | inactive: -0.008
KCTD5 (UniProt Q9NXV2) | inactive: 0.01
INTS7 (UniProt Q9NVH2) | inactive: 0.005
IRF3 (UniProt Q14653) | inactive: -0.006
ITPK1 (UniProt Q13572) | inactive: 0.066
KAT8 (UniProt Q9H7Z6) | inactive: 0.065
IPO5 isoform 3 (UniProt O00410) | inactive: -0.018
ISCA1 isoform 2 (UniProt Q9BUE6) | inactive: 0.028
JPT2 isoform 3 (UniProt Q9H910) | inactive: 0
KCTD20 (UniProt Q7Z5Y7) | inactive: 0.048
ITFG1 (UniProt Q8TB96) | inactive: 0.042
KANSL3 (UniProt Q9P2N6) | inactive: -0.182
KCT2 (UniProt Q8NC54) | inactive: 0.089
JUND (UniProt P17535) | inactive: 0.01
ISY1 isoform 1 (UniProt Q9ULR0) | inactive: 0.026
ITGB1 (UniProt P05556) | inactive: 0.01
